{"source": "patent US20190022072A1", "about": "“USAGE OF ACETAZOLAMIDE FOR TREATING ICH, PARTICULARLY HYPERGLYCEMIC ICH” (priority 2017, published 2019)", "assay": "plasma glucose levels in normoglycemic and hyperglycemic rats with intracerebral hemorrhage treated with AZA", "format": "in vivo, Wistar rats"}
{"smiles": "CC(=O)Nc1nnc(S(N)(=O)=O)s1", "note": "[AZA, acetazolamide]", "values": [{"measurement": "glucose levels of the rats", "setting": "hyperglycemic (STZ) rats treated with AZA 5 mg/kg oral, day 1 post-induction of ICH", "value": 386.75, "unit": "mg/dL"}, {"measurement": "glucose levels of the rats", "setting": "hyperglycemic (STZ) rats treated with AZA 5 mg/kg oral, day 4 post-induction of ICH", "value": 313.00, "unit": "mg/dL"}, {"measurement": "glucose levels of the rats", "setting": "hyperglycemic (STZ) rats treated with AZA 5 mg/kg oral, day 7 post-induction of ICH", "value": 381.25, "unit": "mg/dL"}, {"measurement": "glucose levels of the rats", "setting": "normoglycemic rats treated with AZA 5 mg/kg oral, day 1 post-induction of ICH", "value": 117.75, "unit": "mg/dL"}, {"measurement": "glucose levels of the rats", "setting": "normoglycemic rats treated with AZA 5 mg/kg oral, day 4 post-induction of ICH", "value": 132.25, "unit": "mg/dL"}, {"measurement": "glucose levels of the rats", "setting": "normoglycemic rats treated with AZA 5 mg/kg oral, day 7 post-induction of ICH", "value": 117.25, "unit": "mg/dL"}]}
